In publication PMC5665977:
Like-named read-outs stand apart in the source and are kept apart here. Results are given in words; binding and its absence hold for the method and conditions named. For some assays here: In cells and extracts the contact can be indirect. Some results given as binding are weak or reduced against the parent protein; the word gives no strength. For some assays here: Sequences can lack the tags named with a protein.

By UniProt entry, the sequences of proteins in these tests, tags left out. Residues count along the entry.
UniProt P61829: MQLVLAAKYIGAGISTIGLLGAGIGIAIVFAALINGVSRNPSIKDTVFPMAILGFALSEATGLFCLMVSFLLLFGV
UniProt P00830, residues 34-511: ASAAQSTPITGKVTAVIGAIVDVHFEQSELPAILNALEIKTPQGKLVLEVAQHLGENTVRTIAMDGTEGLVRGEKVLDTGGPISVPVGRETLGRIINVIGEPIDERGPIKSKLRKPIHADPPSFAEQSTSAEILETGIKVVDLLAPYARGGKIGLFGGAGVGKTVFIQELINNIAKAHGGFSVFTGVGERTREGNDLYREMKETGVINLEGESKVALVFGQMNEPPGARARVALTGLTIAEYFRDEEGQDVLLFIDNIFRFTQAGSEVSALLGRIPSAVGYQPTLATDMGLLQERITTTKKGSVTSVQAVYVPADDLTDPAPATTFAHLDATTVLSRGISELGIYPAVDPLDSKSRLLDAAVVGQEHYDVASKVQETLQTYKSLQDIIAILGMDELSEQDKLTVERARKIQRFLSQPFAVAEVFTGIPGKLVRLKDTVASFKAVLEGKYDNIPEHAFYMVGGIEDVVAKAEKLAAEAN

T1: Ina22^FLAG (S. cerevisiae) (UniProt P40576)
T1 sequence: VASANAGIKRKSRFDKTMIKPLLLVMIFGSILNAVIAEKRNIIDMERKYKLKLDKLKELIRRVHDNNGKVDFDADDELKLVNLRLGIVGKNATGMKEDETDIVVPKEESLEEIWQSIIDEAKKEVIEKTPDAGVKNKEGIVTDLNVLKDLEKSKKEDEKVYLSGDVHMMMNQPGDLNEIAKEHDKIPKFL

T2: Ina22 (S. cerevisiae (endogenous in BY4741 mitochondria)) (UniProt P40576)
T2 sequence: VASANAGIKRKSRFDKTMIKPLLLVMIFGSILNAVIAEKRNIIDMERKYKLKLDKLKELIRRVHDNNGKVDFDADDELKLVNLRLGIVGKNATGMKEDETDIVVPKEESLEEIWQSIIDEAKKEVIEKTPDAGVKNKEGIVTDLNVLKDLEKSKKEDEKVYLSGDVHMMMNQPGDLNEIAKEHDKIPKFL

T3: Cbp3^ProtA (S. cerevisiae) (UniProt P21560)
T3 sequence: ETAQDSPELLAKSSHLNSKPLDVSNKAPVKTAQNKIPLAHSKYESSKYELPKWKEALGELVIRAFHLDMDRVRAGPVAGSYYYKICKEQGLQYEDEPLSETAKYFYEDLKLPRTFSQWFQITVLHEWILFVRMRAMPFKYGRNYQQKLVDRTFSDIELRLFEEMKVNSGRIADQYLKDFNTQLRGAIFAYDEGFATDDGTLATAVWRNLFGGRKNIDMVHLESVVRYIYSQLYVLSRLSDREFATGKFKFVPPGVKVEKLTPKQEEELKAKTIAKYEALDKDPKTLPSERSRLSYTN

T4: Atp10^ProtA (S. cerevisiae) (UniProt P18496)
T4 sequence: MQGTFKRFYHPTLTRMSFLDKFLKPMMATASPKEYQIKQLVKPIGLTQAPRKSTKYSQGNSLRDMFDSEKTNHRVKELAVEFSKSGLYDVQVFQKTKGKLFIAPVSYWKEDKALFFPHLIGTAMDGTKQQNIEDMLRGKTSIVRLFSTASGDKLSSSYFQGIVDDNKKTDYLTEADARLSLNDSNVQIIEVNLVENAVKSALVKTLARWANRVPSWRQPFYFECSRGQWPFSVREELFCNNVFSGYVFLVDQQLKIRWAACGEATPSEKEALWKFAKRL

T5: Atp23 (S. cerevisiae (endogenous in BY4741 mitochondria)) (UniProt P53722)
T5 sequence: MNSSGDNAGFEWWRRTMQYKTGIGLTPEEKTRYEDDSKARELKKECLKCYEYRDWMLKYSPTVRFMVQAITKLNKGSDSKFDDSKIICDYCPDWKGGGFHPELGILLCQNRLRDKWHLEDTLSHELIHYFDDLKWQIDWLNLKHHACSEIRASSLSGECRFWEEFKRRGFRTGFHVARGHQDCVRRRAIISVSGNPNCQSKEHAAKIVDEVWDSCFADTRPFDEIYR

T6: Atp6 (S. cerevisiae (endogenous in BY4741 mitochondria)) (UniProt P00854)
T6 sequence: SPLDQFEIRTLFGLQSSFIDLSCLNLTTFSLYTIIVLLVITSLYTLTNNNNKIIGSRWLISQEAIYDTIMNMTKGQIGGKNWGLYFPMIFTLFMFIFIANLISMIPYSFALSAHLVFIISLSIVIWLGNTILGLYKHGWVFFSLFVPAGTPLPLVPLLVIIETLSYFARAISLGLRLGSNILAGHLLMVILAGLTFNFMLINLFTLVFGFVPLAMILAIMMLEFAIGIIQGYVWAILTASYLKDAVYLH


Tests used:
[1] = molecular target: Atp9 (S. cerevisiae (endogenous in BY4741 mitochondria)) (UniProt P61829); test: co-IP + native gel or EMSA; native anti-FLAG isolation of Ina22^FLAG complexes from chloramphenicol-pretreated mitochondria after in organello labelling; BN-PAGE, second dimension SDS-PAGE, autoradiography and western blotting
[2] = molecular target: T1, Ina22^FLAG (S. cerevisiae); test: cross-linking; chemical crosslinking of mitochondria (250 μM cross-linker, 20 mM HEPES pH 7.4, 100 mM NaCl, on ice 30 min), in part after radiolabeling of mitochondrial-encoded proteins; Ina22^FLAG purified under denaturing conditions (1% SDS, then Triton X100); autoradiography or western blotting
[3] = molecular target: T2, Ina22 (S. cerevisiae (endogenous in BY4741 mitochondria)); test: co-IP; rabbit antiserum (anti-Ina22, anti-Ina17 or anti-Atp23) coupled to Protein A sepharose; mitochondria solubilised in 1% digitonin, 160 mM NaCl, 20 mM Tris-HCl pH 7.5, 10% glycerol, 4 °C; wild-type or ina22Δ mitochondria, control or chloramphenicol-pretreated, in part after in organello [35S] labelling
[4] = molecular target: T3, Cbp3^ProtA (S. cerevisiae); test: co-IP; IgG-affinity chromatography of Cbp3, Cbp4 or Cbp6 with a C-terminal Protein A tag from mitochondria, in part after radiolabeling of mitochondrial-encoded proteins
[5] = molecular target: T4, Atp10^ProtA (S. cerevisiae); test: co-IP + native gel or EMSA; Atp10^ProtA complexes purified by IgG-affinity chromatography, eluted natively by TEV cleavage, analysed by BN-PAGE (in part second dimension SDS-PAGE) with western blotting or autoradiography
[6] = molecular target: T4, Atp10^ProtA (S. cerevisiae); test: co-IP; two-step: Atp10^ProtA complexes isolated natively by IgG-affinity chromatography and TEV cleavage, the eluate then immunoprecipitated with anti-Atp2 antibodies or control pre-immune serum; western blotting
[7] = molecular target: T1, Ina22^FLAG (S. cerevisiae); test: co-IP; anti-FLAG M2 affinity gel purification of Ina22^FLAG from solubilised mitochondria, after import of [35S]-labeled Atp10 or after labelling of mitochondrial translation products
[8] = molecular target: T5, Atp23 (S. cerevisiae (endogenous in BY4741 mitochondria)); test: native gel or EMSA; chloramphenicol-pretreated wild-type and ina22Δ mitochondria, in part labelled in organello for 15 min; BN-PAGE and second dimension SDS-PAGE or urea SDS-PAGE, autoradiography or western blotting
[9] = molecular target: T4, Atp10^ProtA (S. cerevisiae); test: co-IP; IgG-affinity chromatography of Atp10^ProtA; mitochondria (wild-type or ina22Δ background, control or chloramphenicol-pretreated, in part after in organello [35S] labelling) solubilised in 1% digitonin, 160 mM NaCl, 20 mM Tris-HCl pH 7.5, 10% glycerol (low stringency), 4 °C
[10] = molecular target: T5, Atp23 (S. cerevisiae (endogenous in BY4741 mitochondria)); test: co-IP; rabbit antiserum (anti-Ina22, anti-Ina17 or anti-Atp23) coupled to Protein A sepharose; mitochondria solubilised in 1% digitonin, 160 mM NaCl, 20 mM Tris-HCl pH 7.5, 10% glycerol, 4 °C; wild-type or ina22Δ mitochondria, control or chloramphenicol-pretreated, in part after in organello [35S] labelling
[11] = molecular target: T2, Ina22 (S. cerevisiae (endogenous in BY4741 mitochondria)); test: as above; remark: listed apart in the source
[12] = molecular target: T1, Ina22^FLAG (S. cerevisiae); test: co-IP + native gel or EMSA; native anti-FLAG isolation of Ina22^FLAG complexes from chloramphenicol-pretreated mitochondria after in organello labelling; BN-PAGE, second dimension SDS-PAGE, autoradiography and western blotting
[13] = molecular target: T4, Atp10^ProtA (S. cerevisiae); test: co-IP + native gel or EMSA; Atp10^ProtA complexes purified by IgG-affinity chromatography, eluted natively by TEV cleavage, analysed by BN-PAGE (in part second dimension SDS-PAGE) with western blotting or autoradiography; remark: listed apart in the source
[14] = molecular target: T4, Atp10^ProtA (S. cerevisiae); test: co-IP; IgG-affinity chromatography of Atp10^ProtA under high-stringent conditions: 1% digitonin, 400 mM NaCl, 10 mM Tris-HCl pH 9.0
[15] = molecular target: T6, Atp6 (S. cerevisiae (endogenous in BY4741 mitochondria)); test: native gel or EMSA; chloramphenicol-pretreated wild-type and ina22Δ mitochondria, in part labelled in organello for 15 min; BN-PAGE and second dimension SDS-PAGE or urea SDS-PAGE, autoradiography or western blotting

binding [2]	binding [4]	binding [8]	binding [9]	binding [11]	binding [12]	binding [13]	binding [14]	Molecule	other results
binds	no binding	–	–	–	–	–	–	Atp9 (from UniProt P61829 1-76)	binding [1]: binds; binding [3]: binds
–	–	–	–	–	–	–	–	Atp2 (from UniProt P00830 34-511)	binding [5]: binds; binding [6]: binds
–	–	–	–	–	–	–	–	[35S]-labeled Atp10 imported into mitochondria (protein, UniProt P18496 1-279) MQGTFKRFYHPTLTRMSFLDKFLKPMMATASPKEYQIKQLVKPIGLTQAPRKSTKYSQGNSLRDMFDSEKTNHRVKELAVEFSKSGLYDVQVFQKTKGKLFIAPVSYWKEDKALFFPHLIGTAMDGTKQQNIEDMLRGKTSIVRLFSTASGDKLSSSYFQGIVDDNKKTDYLTEADARLSLNDSNVQIIEVNLVENAVKSALVKTLARWANRVPSWRQPFYFECSRGQWPFSVREELFCNNVFSGYVFLVDQQLKIRWAACGEATPSEKEALWKFAKRL	binding [7]: binds
binds	no binding	binds	binds	binds	binds	binds	binds	Atp6 (protein, UniProt P00854 11-259) SPLDQFEIRTLFGLQSSFIDLSCLNLTTFSLYTIIVLLVITSLYTLTNNNNKIIGSRWLISQEAIYDTIMNMTKGQIGGKNWGLYFPMIFTLFMFIFIANLISMIPYSFALSAHLVFIISLSIVIWLGNTILGLYKHGWVFFSLFVPAGTPLPLVPLLVIIETLSYFARAISLGLRLGSNILAGHLLMVILAGLTFNFMLINLFTLVFGFVPLAMILAIMMLEFAIGIIQGYVWAILTASYLKDAVYLH	binding [10]: binds
–	–	binds	binds	binds	binds	binds	binds	MPQLVPFYFMNQLTYGFLLMITLLILFSQFFLPMILRLYVSRLFISKL (peptide, UniProt P00856 1-48) [Atp8]	binding [15]: binds
